# Source: patent US20150118305A1, “COMPOSITIONS COMPRISING SULFORAPHANE OR A SULFORAPHANE PRECURSOR AND URSOLIC ACID” (Nutramax Laboratories, Inc., priority 2012, published 2015)
# System: broccoli sprout-derived myrosinase
# Experiment: Consumption of glucoraphanin by myrosinase as a function of ascorbic acid concentration (Example 3)
# Format: biochemical
# Protocol: About 250 mg of broccoli seed extract containing about 12% (w/w) glucoraphanin were subjected to hydrolysis by a fixed concentration of broccoli sprout-derived myrosinase in the presence of variable concentration of ascorbic acid, ranging from 0 to 600 μmoles/Liter. The reaction mixtures were thermostated at 38° C.; aliquots were withdrawn every 15 minutes for 60 minutes, and concentration of glucoraphanin determined chromatographically. The rate of glucoraphanin consumption was interpreted as the rate its conversion to sulforaphane. Graphical representation of glucoraphanin content reduction as a function of increasing ascorbic acid concentration results in a series of linear plots; the slopes of the linear regression lines reflect the rate of glucoraphanin consumption, in pmoles/minute. It is apparent that in the presence of 600 μmoles/Liter concentration of ascorbic acid, the reaction rate increased 13-fold relative to that which proceeded in the absence of modulatory effects of ascorbic acid.
smiles,measurement,setting,value
"O=C1O[C@H]([C@@H](O)CO)C(O)=C1O [Ascorbic Acid, ascorbic acid]",Intercept of linear regression,50 μM ascorbic acid,93.271 µmol
same,Intercept of linear regression,125 μM ascorbic acid,93.123 µmol
same,Intercept of linear regression,250 μM Filtered ascorbic acid,93.386 µmol
same,Intercept of linear regression,250 μM ascorbic acid,93.053 µmol
same,Intercept of linear regression,400 μM ascorbic acid,93.270 µmol
same,Intercept of linear regression,600 μM ascorbic acid,92.734 µmol
